{"source": "PubChem BioAssay AID1159578 | Peter MacCallum Cancer Centre, 2015", "assay": "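Knock-downs that alter how fast lymphatic endothelial cells migrate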 (primary screen)", "cells": "human lymphatic endothelial cells", "knock-down reagent": "siRNA pool against human genes, 40 nM", "timing": "48 h after transfection", "measurement": "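Cells stained with dye and imaged after a scratch; covered wound area and nuclei counted, duplicates averaged, migration set against mock wells and turned into a robust z-score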", "direction": "migration robust z-score: higher = faster migration into the scratch; nuclei per well: higher = more cells in the well", "hit rule": "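Migration changed when robust z exceeds 2 or falls below -2 and mean nuclei number is at least 3300; otherwise not called changed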", "meaning of the calls": "active = migration changed; inactive = no migration change, or too few cells", "note": "The deposit covers about 18,000 reagents; this is a part drawn at random. About 1,030 of them (5.7%) count as active. 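Inactive calls also include pools with fewer than 3300 nuclei, whose migration was not assessed.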 Raw values are not corrected between plates. Unmarked entries are inactive. Further read-outs or replicates are left out here."}
{"gene knocked down": "CALM2 (calmodulin 2)", "migration robust z-score": "-2.02 (active)", "nuclei per well, duplicate mean": 3513}
{"gene knocked down": "LRGUK (leucine rich repeats and guanylate kinase domain containing)", "migration robust z-score": 1.4, "nuclei per well, duplicate mean": 5533}
{"gene knocked down": "PWP1 (PWP1 homolog, endonuclein)", "migration robust z-score": 0.18, "nuclei per well, duplicate mean": 5739}
{"gene knocked down": "CACNG7 (calcium voltage-gated channel auxiliary subunit gamma 7)", "migration robust z-score": -0.42, "nuclei per well, duplicate mean": 4640}
{"gene knocked down": "BICDL1 (BICD family like cargo adaptor 1)", "migration robust z-score": -0.14, "nuclei per well, duplicate mean": 5482}
{"gene knocked down": "RNF128 (ring finger protein 128)", "migration robust z-score": 1.43, "nuclei per well, duplicate mean": 4612}
{"gene knocked down": "AIRIM (AFG2 interacting ribosome maturation factor)", "migration robust z-score": 0.25, "nuclei per well, duplicate mean": 7098}
{"gene knocked down": "VSTM2L (V-set and transmembrane domain containing 2 like)", "migration robust z-score": 1.54, "nuclei per well, duplicate mean": 6299}
{"gene knocked down": "GTPBP4 (GTP binding protein 4)", "migration robust z-score": 0.42, "nuclei per well, duplicate mean": 6026}
{"gene knocked down": "PRAMEF8 (PRAME family member 8)", "migration robust z-score": 0.86, "nuclei per well, duplicate mean": 5715}
{"gene knocked down": "CSF2RB (colony stimulating factor 2 receptor subunit beta)", "migration robust z-score": 1.82, "nuclei per well, duplicate mean": 6634}
{"gene knocked down": "DBX2 (developing brain homeobox 2)", "migration robust z-score": -0.86, "nuclei per well, duplicate mean": 4570}
{"gene knocked down": "ARMC8 (armadillo repeat containing 8)", "migration robust z-score": 0.6, "nuclei per well, duplicate mean": 5447}
{"gene knocked down": "MAST3 (microtubule associated serine/threonine kinase 3)", "migration robust z-score": "-2.08 (active)", "nuclei per well, duplicate mean": 3834}

An excerpt from above, showing only “migration robust z-score”.
CSF2RB (colony stimulating factor 2 receptor subunit beta): 1.82
DBX2 (developing brain homeobox 2): -0.86
